The other results are listed elsewhere or left out.
Tests used:
Experiment in all cases: log2 fold change, soluble protein after heating vs DMSO (PISA); higher = thermal stabilisation; K562 lysate, 10 uM; active = over 0.2 and 3.5 SD of the protein, either way, in both replicates (recomputed)
[1] = compound: NCC(=O)Nc1ccc(-n2nc(C(F)(F)F)cc2-c2ccc3c(ccc4ccccc43)c2)cc1
In short: (§1)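 The values are log-two fold changes in thermal stability compared with solvent controls and come from duplicates. They were obtained by TMTpro 16plex LC-MS/MS, with channel sums equalised, on the supernatant after 21,000xg for 90 min. That supernatant came from crude K562 extract at 1 mg/mL protein treated with 10 μM compound for 30 min, heated for 3 min across 48°C-58°C, pooled and brought to 0.5% NP-40 at 4°C.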

The chains behind the UniProt entries cited, without tags or fusion partners. Where a name states a change or a piece, a line headed by the entry shows the natural chain unless it says otherwise.
UniProt Q86XZ4: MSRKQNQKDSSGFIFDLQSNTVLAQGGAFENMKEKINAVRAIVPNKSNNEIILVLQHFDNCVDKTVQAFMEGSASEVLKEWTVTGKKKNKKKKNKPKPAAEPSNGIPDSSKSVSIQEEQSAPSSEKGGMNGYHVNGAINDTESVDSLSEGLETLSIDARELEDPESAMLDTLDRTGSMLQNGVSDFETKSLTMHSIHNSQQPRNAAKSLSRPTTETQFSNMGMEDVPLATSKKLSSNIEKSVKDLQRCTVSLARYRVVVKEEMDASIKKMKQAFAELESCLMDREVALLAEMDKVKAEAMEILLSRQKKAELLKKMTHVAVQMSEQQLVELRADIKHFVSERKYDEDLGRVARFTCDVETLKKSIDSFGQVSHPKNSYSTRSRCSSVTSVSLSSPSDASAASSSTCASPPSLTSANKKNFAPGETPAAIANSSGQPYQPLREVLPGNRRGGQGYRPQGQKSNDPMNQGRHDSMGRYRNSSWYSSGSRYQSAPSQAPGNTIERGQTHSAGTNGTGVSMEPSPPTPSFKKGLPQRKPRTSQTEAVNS
UniProt Q13247: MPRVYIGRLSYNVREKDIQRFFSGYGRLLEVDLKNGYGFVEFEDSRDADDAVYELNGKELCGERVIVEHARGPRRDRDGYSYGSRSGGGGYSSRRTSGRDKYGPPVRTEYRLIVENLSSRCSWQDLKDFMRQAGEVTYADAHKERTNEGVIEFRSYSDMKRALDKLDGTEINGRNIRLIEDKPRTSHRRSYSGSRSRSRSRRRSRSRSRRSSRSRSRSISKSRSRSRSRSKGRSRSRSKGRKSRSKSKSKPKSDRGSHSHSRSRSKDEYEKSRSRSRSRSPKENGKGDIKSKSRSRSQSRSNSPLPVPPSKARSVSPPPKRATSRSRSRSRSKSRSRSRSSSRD
UniProt Q9NZD8: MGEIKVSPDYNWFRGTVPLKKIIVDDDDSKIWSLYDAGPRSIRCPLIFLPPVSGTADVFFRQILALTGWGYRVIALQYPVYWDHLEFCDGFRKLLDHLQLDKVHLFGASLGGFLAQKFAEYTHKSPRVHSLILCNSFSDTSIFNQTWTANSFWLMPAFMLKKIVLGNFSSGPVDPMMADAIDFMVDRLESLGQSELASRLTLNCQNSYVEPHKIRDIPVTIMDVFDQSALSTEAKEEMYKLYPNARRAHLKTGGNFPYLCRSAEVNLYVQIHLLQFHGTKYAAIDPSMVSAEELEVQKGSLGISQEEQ
UniProt P10124: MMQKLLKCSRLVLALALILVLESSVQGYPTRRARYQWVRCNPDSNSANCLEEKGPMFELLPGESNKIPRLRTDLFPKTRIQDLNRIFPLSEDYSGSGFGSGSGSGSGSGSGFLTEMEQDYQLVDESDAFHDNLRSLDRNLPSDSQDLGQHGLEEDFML
UniProt Q12772: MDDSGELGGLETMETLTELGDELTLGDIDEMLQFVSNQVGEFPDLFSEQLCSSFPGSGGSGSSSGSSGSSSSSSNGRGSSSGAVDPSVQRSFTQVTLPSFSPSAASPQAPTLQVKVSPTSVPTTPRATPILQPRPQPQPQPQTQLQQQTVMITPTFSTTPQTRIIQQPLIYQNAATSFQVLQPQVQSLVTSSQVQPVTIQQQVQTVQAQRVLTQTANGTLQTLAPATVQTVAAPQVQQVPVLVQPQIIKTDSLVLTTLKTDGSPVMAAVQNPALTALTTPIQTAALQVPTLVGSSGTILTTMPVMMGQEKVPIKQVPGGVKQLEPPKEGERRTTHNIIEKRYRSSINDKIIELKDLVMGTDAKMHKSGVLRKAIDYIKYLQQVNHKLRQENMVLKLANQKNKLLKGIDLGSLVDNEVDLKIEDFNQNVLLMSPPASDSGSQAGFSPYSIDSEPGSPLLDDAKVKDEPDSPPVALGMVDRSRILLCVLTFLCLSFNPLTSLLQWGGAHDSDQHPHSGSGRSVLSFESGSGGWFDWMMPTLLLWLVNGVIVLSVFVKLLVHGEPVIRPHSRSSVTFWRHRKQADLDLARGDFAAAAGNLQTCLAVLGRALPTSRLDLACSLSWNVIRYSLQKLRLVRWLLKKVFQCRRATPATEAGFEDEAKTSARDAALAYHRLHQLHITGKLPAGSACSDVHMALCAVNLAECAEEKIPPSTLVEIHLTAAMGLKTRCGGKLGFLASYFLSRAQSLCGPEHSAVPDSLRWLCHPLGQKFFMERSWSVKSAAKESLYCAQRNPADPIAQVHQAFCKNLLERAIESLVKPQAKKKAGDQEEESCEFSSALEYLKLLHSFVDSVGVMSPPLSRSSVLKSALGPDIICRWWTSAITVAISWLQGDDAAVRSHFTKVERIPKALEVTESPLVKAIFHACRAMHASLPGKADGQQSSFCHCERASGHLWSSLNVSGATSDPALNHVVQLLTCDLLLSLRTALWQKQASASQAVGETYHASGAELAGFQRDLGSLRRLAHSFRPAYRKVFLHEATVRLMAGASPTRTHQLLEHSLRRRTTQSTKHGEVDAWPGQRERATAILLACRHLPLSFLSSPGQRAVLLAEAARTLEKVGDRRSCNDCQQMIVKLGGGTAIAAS
UniProt Q9Y5M8: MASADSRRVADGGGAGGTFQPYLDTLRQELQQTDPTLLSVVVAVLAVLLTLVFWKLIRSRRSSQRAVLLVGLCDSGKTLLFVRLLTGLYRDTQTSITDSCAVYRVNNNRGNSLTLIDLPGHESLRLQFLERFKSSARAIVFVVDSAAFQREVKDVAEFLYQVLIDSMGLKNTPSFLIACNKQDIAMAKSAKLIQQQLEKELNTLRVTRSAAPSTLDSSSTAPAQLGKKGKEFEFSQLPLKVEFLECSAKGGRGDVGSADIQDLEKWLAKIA
UniProt Q8IZP2: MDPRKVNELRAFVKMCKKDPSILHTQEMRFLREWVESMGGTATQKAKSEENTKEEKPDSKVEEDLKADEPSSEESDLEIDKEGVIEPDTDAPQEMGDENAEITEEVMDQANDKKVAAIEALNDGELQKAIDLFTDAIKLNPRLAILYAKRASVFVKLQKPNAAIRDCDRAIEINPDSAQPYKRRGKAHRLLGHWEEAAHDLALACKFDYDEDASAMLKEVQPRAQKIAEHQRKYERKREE
UniProt Q96EA4: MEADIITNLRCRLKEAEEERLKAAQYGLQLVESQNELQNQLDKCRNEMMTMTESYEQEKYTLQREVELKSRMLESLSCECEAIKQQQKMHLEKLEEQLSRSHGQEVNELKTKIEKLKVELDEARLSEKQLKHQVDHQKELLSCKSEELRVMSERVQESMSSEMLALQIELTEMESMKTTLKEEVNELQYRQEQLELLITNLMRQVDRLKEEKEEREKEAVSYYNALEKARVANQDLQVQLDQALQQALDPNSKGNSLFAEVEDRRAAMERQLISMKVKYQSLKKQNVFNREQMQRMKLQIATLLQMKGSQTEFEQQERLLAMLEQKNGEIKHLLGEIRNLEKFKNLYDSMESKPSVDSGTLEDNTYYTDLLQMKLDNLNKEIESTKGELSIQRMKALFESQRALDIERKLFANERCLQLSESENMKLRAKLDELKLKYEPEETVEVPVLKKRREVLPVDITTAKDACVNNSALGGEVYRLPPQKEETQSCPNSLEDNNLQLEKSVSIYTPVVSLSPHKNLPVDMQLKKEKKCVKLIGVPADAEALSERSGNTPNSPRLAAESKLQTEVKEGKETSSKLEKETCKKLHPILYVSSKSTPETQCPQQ
UniProt Q16842: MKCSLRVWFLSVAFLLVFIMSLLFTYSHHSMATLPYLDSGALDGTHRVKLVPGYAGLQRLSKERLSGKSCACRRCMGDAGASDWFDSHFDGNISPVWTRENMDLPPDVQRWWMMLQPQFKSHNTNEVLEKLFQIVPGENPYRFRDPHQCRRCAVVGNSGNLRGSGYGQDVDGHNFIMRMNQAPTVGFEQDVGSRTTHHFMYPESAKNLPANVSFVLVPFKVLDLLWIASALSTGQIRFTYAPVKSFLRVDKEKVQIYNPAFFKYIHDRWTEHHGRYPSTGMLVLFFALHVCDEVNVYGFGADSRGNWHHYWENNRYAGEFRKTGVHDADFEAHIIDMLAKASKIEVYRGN
UniProt Q9HBM1: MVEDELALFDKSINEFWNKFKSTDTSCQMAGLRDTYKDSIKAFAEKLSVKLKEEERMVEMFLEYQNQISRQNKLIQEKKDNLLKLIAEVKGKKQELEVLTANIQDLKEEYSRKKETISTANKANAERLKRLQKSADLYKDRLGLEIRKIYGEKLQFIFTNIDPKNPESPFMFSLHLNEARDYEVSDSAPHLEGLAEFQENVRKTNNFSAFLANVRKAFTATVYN
UniProt Q08170: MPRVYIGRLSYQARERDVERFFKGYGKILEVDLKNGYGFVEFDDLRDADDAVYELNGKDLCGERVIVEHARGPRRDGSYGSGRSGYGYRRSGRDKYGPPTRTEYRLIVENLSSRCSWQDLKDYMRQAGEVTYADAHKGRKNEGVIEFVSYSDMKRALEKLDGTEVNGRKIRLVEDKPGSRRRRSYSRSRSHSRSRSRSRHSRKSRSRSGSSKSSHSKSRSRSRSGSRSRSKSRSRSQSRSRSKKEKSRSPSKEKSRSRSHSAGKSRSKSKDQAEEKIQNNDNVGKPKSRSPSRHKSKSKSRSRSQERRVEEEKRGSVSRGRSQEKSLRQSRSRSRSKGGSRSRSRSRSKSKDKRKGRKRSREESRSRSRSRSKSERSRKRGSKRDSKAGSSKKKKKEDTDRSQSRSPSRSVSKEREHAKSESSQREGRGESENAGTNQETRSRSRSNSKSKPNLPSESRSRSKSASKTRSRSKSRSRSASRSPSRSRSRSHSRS
UniProt Q05519: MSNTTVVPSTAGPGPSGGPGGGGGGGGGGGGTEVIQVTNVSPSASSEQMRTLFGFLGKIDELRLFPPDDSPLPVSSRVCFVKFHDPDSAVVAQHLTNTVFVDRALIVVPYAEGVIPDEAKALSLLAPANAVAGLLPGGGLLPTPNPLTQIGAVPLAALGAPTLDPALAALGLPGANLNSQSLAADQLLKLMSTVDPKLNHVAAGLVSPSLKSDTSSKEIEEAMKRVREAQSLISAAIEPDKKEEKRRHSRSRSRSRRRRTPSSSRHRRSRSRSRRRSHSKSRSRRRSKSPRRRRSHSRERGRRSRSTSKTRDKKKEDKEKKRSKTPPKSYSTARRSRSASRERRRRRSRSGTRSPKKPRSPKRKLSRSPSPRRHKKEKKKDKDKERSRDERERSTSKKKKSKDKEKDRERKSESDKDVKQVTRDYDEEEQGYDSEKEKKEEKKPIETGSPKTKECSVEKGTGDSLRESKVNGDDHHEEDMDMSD
UniProt Q76I76: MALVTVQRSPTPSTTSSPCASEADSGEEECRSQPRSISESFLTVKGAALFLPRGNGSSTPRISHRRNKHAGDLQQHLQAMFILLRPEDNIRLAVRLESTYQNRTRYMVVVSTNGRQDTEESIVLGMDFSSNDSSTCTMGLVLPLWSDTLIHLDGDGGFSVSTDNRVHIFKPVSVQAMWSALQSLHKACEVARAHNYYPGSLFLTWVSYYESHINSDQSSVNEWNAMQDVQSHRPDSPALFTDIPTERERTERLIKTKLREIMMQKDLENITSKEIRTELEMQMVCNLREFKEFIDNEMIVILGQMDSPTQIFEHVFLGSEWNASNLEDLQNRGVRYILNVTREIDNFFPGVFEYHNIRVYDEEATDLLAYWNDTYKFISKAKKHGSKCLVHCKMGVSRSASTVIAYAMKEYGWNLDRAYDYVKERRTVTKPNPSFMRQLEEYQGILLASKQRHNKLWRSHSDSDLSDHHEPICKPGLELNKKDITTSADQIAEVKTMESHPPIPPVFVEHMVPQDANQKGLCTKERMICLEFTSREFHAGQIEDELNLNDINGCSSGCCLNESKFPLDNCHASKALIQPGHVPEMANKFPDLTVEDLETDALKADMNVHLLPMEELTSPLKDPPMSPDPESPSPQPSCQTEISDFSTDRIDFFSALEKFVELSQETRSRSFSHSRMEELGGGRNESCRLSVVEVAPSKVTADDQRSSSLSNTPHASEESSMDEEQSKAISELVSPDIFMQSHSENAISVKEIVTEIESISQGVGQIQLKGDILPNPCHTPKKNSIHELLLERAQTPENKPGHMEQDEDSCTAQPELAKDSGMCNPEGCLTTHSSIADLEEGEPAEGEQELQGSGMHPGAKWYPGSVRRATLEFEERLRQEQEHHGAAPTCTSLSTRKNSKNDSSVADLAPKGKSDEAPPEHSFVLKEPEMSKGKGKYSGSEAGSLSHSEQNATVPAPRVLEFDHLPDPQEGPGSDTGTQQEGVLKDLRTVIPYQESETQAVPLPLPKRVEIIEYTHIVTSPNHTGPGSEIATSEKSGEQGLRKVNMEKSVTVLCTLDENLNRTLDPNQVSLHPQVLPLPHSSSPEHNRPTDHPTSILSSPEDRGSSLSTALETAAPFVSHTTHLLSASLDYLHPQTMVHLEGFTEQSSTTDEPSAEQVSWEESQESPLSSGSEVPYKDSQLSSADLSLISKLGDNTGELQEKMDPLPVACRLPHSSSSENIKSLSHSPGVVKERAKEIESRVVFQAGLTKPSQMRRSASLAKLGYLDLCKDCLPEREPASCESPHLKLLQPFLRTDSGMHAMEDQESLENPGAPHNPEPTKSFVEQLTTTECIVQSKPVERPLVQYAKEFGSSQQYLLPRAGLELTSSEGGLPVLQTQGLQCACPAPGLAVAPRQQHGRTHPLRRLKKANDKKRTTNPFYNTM

vorinostat = compound: O=C(CCCCCCC(=O)Nc1ccccc1)NO [vorinostat]
In short: as §1

silmitasertib = compound: O=C(O)c1ccc2c(c1)nc(Nc1cccc(Cl)c1)c1ccncc12 [silmitasertib]
In short: as §1

[2] = compound: O=C1NC(=O)C(c2cnc3ccccn23)=C1c1cn2c3c(cc(F)cc13)CN(C(=O)N1CCCCC1)CC2
In short: as §1

entospletinib = compound: c1cn2cc(-c3ccc4cn[nH]c4c3)nc(Nc3ccc(N4CCOCC4)cc3)c2n1 [entospletinib]
In short: as §1

Row | Target | log2 fold change [1] | log2 fold change (vorinostat) | log2 fold change (silmitasertib) | log2 fold change [2] | log2 fold change (entospletinib)
1 | ST6GALNAC1 (UniProt Q9NSC7) | inactive: 0.002 | inactive: 0.05 | inactive: -0.001 | inactive: -0.001 | inactive: -0.02
2 | SPATS2 (UniProt Q86XZ4) | inactive: -0.047 | active: -0.507 | inactive: 0.002 | inactive: -0.049 | inactive: 0.176
3 | SSNA1 (UniProt O43805) | inactive: -0.036 | active: -0.34 | inactive: 0 | inactive: -0.023 | inactive: -0.065
4 | SRSF6 (UniProt Q13247) | inactive: -0.122 | inactive: 0.132 | inactive: 0.001 | inactive: -0.204 | inactive: 0.013
5 | SPG21 (UniProt Q9NZD8) | inactive: -0.035 | inactive: 0.014 | inactive: -0.026 | inactive: -0.102 | inactive: -0.046
6 | SRGN (UniProt P10124) | inactive: -0.073 | inactive: 0.132 | inactive: -0.123 | inactive: -0.087 | inactive: -0.013
7 | SREBF2 (UniProt Q12772) | inactive: 0.084 | inactive: -0.087 | inactive: -0.001 | inactive: -0.054 | inactive: -0.213
8 | SRPRB (UniProt Q9Y5M8) | inactive: 0.013 | inactive: 0.018 | inactive: 0.036 | inactive: -0.029 | inactive: -0.027
9 | ST13P4 (UniProt Q8IZP2) | inactive: 0.131 | inactive: -0.216 | inactive: 0.034 | – | –
10 | SPDL1 (UniProt Q96EA4) | inactive: -0.004 | inactive: -0.077 | inactive: -0.012 | inactive: 0.034 | inactive: 0.004
11 | SPECC1L (UniProt Q69YQ0) | inactive: -0.016 | inactive: 0.099 | inactive: -0.023 | inactive: 0.011 | inactive: 0.005
12 | SRGAP2 (UniProt O75044) | inactive: 0.03 | inactive: -0.163 | inactive: -0.014 | inactive: -0.05 | inactive: 0.011
13 | STAT3 isoform 3 (UniProt P40763) | inactive: 0.151 | inactive: -0.195 | inactive: -0.067 | inactive: 0.025 | inactive: -0.055
14 | SPRY4 (UniProt Q9C004) | inactive: -0.034 | inactive: 0.008 | inactive: 0 | inactive: -0.019 | inactive: -0.059
15 | SPIN4 (UniProt Q56A73) | inactive: -0.298 | – | – | – | –
16 | ST3GAL2 (UniProt Q16842) | inactive: 0.04 | inactive: 0.076 | inactive: 0.028 | inactive: -0.028 | inactive: 0.001
17 | STAT5B (UniProt P51692) | inactive: 0.014 | inactive: -0.237 | inactive: 0.004 | inactive: 0.038 | inactive: 0.002
18 | STC2 (UniProt O76061) | inactive: -0.057 | inactive: 0 | inactive: 0.095 | inactive: -0.054 | inactive: 0.128
19 | SPECC1 (UniProt Q5M775) | inactive: -0.02 | inactive: 0 | inactive: -0.022 | inactive: -0.028 | inactive: 0
20 | SPC25 (UniProt Q9HBM1) | inactive: 0.026 | active: -0.266 | inactive: 0 | inactive: 0.016 | inactive: -0.004
21 | SRSF4 (UniProt Q08170) | inactive: -0.046 | inactive: -0.024 | inactive: 0.02 | inactive: -0.085 | inactive: -0.018
22 | SRSF11 (UniProt Q05519) | inactive: 0.007 | inactive: 0.121 | inactive: -0.018 | inactive: 0.005 | inactive: 0.022
23 | SPC24 (UniProt Q8NBT2) | inactive: -0.016 | inactive: -0.222 | inactive: -0.004 | inactive: 0.005 | inactive: -0.023
24 | SSH2 (UniProt Q76I76) | inactive: 0.04 | inactive: -0.228 | inactive: -0.012 | inactive: 0.1 | inactive: -0.14
25 | SRRM1 (UniProt Q8IYB3) | inactive: -0.02 | inactive: 0.122 | inactive: -0.022 | inactive: -0.011 | inactive: -0.007

Single entries from the list.
Value of SPC25 (UniProt Q9HBM1) under log2 fold change [1]: inactive: 0.026
Value of SSH2 (UniProt Q76I76) under log2 fold change (silmitasertib): inactive: -0.012
